Results published in the supplement of paper PMC10849652.
This is one part of the list.

Protein sequences, listed by entry. Tags and fused reporters are not part of them. Lines headed by an entry give the natural chain unless they say otherwise; changes in a name come on top.
UniProt P00441, whole entry, looked up: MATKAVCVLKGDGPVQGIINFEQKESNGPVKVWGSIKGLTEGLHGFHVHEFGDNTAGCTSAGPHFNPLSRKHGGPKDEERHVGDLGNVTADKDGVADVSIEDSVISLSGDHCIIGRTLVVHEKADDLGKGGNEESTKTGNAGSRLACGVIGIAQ
UniProt P08047, whole entry, looked up: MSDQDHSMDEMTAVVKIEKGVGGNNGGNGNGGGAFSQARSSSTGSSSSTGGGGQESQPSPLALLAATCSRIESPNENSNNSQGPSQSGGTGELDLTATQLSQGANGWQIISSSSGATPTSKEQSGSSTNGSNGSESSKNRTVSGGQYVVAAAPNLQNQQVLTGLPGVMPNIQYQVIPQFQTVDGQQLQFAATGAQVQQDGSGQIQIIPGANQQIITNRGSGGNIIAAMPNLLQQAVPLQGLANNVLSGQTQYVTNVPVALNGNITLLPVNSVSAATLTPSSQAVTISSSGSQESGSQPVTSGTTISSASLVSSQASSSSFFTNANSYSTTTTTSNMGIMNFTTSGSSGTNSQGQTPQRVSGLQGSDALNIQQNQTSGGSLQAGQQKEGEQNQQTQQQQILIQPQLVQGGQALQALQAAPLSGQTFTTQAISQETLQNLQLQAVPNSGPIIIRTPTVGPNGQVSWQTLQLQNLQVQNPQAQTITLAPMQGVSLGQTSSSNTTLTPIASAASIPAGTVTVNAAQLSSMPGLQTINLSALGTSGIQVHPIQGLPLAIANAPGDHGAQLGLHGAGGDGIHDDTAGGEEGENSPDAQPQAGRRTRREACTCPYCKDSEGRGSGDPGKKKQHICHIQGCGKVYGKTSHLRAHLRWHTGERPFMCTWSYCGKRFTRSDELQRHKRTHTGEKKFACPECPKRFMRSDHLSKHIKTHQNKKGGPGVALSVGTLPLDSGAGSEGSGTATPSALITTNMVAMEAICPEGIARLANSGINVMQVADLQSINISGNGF
UniProt Q96BD0: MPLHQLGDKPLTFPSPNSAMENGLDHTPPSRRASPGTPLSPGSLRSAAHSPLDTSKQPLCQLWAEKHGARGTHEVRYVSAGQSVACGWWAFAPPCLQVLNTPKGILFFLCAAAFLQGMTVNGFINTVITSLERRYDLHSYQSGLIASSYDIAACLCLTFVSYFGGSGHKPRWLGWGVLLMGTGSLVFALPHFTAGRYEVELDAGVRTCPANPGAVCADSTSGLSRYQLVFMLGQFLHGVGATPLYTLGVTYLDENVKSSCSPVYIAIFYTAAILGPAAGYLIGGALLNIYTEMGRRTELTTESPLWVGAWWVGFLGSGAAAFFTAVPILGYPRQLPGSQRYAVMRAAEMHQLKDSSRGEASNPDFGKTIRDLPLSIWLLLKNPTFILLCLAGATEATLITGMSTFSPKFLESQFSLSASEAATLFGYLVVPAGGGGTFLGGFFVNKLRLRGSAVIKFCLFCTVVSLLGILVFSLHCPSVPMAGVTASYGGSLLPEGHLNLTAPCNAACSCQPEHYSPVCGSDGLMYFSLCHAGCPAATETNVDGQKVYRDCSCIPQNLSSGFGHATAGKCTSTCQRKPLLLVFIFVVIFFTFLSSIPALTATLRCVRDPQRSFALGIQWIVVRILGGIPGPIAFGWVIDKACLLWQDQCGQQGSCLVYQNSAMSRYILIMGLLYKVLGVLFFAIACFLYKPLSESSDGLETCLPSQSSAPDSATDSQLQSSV
UniProt O60493, whole entry, looked up: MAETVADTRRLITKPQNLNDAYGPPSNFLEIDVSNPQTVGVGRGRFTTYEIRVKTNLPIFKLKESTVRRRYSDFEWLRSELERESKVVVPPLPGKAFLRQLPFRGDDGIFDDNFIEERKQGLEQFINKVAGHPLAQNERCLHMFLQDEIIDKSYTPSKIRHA
UniProt Q96KF7: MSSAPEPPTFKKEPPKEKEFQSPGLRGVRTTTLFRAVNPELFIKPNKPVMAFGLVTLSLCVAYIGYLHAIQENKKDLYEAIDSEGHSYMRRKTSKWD
UniProt Q8IYB5: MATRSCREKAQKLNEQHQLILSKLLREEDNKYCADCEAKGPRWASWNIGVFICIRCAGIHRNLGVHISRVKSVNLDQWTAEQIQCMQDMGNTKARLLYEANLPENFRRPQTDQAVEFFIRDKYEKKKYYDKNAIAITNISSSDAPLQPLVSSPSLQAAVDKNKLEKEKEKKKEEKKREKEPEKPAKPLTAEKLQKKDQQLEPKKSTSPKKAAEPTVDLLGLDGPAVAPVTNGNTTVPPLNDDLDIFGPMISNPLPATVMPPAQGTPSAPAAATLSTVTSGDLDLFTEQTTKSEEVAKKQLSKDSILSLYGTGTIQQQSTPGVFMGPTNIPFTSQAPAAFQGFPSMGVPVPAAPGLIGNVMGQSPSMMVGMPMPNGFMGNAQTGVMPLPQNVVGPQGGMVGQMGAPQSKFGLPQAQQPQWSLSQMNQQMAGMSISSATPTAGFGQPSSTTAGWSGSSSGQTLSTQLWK
UniProt O76070, whole entry, looked up: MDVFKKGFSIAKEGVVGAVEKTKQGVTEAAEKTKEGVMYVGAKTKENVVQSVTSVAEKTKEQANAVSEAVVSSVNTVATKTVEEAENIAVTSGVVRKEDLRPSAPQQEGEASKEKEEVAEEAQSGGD
UniProt Q9NRG4: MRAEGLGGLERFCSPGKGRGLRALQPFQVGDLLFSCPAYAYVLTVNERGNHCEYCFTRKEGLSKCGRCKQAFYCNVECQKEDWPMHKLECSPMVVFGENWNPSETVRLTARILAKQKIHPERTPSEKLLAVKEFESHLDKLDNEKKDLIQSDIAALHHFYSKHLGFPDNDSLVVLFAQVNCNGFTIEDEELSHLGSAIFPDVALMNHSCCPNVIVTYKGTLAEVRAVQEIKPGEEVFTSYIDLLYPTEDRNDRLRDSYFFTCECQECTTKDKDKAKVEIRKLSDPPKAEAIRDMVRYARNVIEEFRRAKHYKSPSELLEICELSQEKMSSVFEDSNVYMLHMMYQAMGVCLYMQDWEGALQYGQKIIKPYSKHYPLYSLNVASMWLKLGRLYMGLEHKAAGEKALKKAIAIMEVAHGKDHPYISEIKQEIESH
UniProt Q15506: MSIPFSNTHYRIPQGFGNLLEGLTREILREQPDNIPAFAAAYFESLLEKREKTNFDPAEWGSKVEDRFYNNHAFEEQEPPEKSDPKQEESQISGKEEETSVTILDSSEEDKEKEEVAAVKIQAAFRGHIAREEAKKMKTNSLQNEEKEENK
UniProt Q9Y5W9: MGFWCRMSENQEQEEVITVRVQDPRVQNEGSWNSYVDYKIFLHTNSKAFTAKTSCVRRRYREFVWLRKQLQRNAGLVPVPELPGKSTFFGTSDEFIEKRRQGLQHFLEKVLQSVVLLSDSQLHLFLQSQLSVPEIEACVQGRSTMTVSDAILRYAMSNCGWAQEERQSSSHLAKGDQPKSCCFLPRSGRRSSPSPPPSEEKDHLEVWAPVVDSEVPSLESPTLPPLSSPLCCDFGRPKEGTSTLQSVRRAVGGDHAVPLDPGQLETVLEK
UniProt Q00796: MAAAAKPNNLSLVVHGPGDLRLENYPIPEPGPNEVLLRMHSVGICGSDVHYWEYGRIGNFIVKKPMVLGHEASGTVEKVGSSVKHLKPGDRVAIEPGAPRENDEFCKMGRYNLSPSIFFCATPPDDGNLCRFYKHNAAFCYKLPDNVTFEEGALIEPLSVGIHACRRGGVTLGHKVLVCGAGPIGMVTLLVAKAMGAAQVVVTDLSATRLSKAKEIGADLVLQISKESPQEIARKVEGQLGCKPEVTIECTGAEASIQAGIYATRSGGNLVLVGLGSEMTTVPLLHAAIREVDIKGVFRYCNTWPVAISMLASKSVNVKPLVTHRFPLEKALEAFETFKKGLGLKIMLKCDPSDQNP
UniProt Q8WVK2: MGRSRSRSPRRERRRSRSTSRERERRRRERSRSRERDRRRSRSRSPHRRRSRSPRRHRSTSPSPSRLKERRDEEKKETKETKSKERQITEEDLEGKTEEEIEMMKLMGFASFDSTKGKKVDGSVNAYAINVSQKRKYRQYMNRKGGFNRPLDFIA
UniProt Q13596, whole entry, looked up: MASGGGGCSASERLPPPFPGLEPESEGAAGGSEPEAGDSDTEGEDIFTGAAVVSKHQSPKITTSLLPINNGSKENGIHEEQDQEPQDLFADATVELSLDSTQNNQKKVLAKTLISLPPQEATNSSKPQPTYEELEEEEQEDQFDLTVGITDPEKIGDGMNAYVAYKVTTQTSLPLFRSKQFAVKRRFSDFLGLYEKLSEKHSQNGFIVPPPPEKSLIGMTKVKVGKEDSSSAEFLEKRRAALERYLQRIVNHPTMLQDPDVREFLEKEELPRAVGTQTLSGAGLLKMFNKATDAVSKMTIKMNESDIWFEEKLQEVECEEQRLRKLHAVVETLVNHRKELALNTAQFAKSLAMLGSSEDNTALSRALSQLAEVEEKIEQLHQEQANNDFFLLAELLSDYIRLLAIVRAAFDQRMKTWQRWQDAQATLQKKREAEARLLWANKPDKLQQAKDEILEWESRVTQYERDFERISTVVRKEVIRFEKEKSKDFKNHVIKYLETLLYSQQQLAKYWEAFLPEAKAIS
UniProt O00161: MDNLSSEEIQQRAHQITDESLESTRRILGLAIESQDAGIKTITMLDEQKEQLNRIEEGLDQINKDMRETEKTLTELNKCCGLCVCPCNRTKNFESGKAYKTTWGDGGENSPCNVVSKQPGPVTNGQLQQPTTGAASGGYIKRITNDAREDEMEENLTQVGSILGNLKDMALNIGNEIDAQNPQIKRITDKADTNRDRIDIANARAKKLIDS
UniProt Q9NXE4: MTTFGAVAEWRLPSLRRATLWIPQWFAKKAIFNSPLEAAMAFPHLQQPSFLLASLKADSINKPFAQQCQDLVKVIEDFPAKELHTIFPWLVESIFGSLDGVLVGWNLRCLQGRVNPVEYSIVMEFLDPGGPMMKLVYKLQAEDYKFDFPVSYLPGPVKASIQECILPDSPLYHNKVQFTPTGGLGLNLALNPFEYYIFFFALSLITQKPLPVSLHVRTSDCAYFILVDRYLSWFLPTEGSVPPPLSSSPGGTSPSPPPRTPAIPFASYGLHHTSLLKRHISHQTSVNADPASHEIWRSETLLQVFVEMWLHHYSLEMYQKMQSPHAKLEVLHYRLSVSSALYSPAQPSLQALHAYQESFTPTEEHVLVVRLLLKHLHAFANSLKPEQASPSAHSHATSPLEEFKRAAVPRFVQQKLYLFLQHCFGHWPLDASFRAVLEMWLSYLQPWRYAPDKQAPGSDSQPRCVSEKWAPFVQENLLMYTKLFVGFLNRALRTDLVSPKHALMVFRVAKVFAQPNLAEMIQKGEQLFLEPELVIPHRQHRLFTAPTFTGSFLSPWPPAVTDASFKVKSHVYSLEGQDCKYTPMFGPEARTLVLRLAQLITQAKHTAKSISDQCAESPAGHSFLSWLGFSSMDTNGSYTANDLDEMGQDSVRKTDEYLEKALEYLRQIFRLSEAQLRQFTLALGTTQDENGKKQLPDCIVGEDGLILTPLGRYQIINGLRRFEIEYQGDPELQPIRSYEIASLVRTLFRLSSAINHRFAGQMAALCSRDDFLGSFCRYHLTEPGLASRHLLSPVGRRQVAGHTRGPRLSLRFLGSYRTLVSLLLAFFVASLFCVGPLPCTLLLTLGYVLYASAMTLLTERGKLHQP
UniProt Q8IY18: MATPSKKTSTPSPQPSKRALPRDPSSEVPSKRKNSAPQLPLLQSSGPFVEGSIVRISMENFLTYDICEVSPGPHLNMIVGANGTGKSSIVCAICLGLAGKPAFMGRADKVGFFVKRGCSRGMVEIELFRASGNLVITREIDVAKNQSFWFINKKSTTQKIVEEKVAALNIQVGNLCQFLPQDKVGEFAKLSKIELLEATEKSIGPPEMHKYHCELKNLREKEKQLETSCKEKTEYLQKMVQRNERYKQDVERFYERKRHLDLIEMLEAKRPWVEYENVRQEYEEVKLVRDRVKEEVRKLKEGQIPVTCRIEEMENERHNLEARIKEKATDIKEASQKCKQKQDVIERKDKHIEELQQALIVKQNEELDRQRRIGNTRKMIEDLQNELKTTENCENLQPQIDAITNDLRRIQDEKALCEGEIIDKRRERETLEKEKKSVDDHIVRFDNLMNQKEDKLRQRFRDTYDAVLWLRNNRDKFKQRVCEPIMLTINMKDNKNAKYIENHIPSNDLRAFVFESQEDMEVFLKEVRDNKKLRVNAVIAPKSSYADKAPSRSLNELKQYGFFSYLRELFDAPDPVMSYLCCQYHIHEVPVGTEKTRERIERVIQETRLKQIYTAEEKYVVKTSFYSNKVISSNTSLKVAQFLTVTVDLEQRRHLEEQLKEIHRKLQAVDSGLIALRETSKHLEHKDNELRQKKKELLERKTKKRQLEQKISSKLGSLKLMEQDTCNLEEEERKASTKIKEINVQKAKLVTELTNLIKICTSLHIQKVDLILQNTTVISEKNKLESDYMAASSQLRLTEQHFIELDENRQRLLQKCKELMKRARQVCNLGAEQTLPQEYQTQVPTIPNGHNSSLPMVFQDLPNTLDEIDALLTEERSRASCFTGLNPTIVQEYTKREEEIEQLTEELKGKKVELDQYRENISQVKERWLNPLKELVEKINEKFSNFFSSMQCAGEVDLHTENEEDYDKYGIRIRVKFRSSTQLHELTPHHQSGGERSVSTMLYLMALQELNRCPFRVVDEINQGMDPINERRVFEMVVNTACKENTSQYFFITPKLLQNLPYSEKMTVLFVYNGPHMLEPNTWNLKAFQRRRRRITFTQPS

Legend:
Experiment in all cases: log2 fold change, soluble protein after heating vs DMSO (PISA); higher = thermal stabilisation; K562 cells, 10 uM, 30 min; active = over 0.2 and 3.5 SD of the protein, either way, in both replicates (recomputed)
[1] = compound: CS(=O)(=O)c1ccc(-c2cnc(N)c(C(=O)Nc3ccccc3)n2)cc1
Outline: (§1)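 K562 cells (2×10^6 cells/mL) were treated with 10 μM compound for 30 min, and aliquots were heated for 3 min over 48°C-58°C. Pooled aliquots were extracted in PBS with 0.5% NP-40 at 4°C, and the supernatant after 21,000xg for 90 min was measured by TMTpro 16plex LC-MS/MS with channel sums equalised. Reported thermal stability, relative to control samples and from duplicates, is a log2 fold change.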

crizotinib = compound: C[C@@H](Oc1cc(-c2cnn(C3CCNCC3)c2)cnc1N)c1c(Cl)ccc(F)c1Cl [crizotinib]
Outline: as §1

[2] = compound: C[C@@H]1COCCN1C2=NC(=NC(=C2)C3(CC3)S(=O)(=O)C)C4=C5C=CNC5=CC=C4
Outline: as §1

[3] = compound: C[C@H](C1=CC=C(C=C1)C(=O)NC2=C3C=CNC3=NC=C2)N
Outline: as §1

duvelisib = compound: C[C@H](Nc1ncnc2nc[nH]c12)c1cc2cccc(Cl)c2c(=O)n1-c1ccccc1 [duvelisib]
Outline: as §1

gandotinib = compound: Cc1cc(Nc2cc(CN3CCOCC3)c3nc(C)c(Cc4ccc(Cl)cc4F)n3n2)n[nH]1 [gandotinib]
Outline: as §1

tozasertib = compound: Cc1cc(Nc2cc(N3CCN(C)CC3)nc(Sc3ccc(NC(=O)C4CC4)cc3)n2)n[nH]1 [tozasertib]
Outline: as §1

[4] = compound: Cc1cc(SCc2sc(-c3ccc(C(F)(F)F)cc3)nc2C)ccc1OCC(=O)O
Outline: as §1

doramapimod = compound: Cc1ccc(-n2nc(C(C)(C)C)cc2NC(=O)Nc2ccc(OCCN3CCOCC3)c3ccccc23)cc1 [doramapimod]
Outline: as §1

ispinesib = compound: Cc1ccc(C(=O)N(CCCN)[C@@H](c2nc3cc(Cl)ccc3c(=O)n2Cc2ccccc2)C(C)C)cc1 [ispinesib]
Outline: as §1

Target	log2 fold change [1]	log2 fold change (crizotinib)	log2 fold change [2]	log2 fold change [3]	log2 fold change (duvelisib)	log2 fold change (gandotinib)	log2 fold change (tozasertib)	log2 fold change [4]	log2 fold change (doramapimod)	log2 fold change (ispinesib)
SOD1 (UniProt P00441)	inactive: 0.018	inactive: 0.137	inactive: 0.125	inactive: 0.026	inactive: 0	inactive: -0.01	inactive: 0.085	inactive: -0.028	inactive: 0.087	inactive: -0.029
SP1 (UniProt P08047)	inactive: 0.031	inactive: -0.038	inactive: -0.044	inactive: 0.042	–	inactive: 0.083	–	inactive: 0.023	inactive: 0.036	inactive: -0.113
SMAD4 (UniProt Q13485)	inactive: 0.02	inactive: 0.122	inactive: 0.045	inactive: -0.077	inactive: 0.067	inactive: -0.012	inactive: 0.022	inactive: -0.012	inactive: -0.038	inactive: 0.082
SLCO4A1 (UniProt Q96BD0)	inactive: 0.048	inactive: 0.193	inactive: -0.096	inactive: -0.016	–	inactive: 0.054	inactive: 0.104	–	inactive: -0.081	inactive: -0.298
SNU13, A0A3B3IUA2	inactive: -0.039	inactive: 0	inactive: 0.031	inactive: 0.201	inactive: 0.165	inactive: -0.187	inactive: -0.079	inactive: -0.093	inactive: 0.072	inactive: -0.251
SP3 (UniProt Q02447)	inactive: -0.005	inactive: 0.013	inactive: -0.071	inactive: 0.123	–	inactive: 0.086	–	inactive: 0	inactive: 0.089	inactive: -0.046
SNX3 (UniProt O60493)	inactive: -0.035	inactive: -0.106	inactive: 0.062	inactive: 0.048	active: -0.385	inactive: -0.164	–	inactive: 0.085	inactive: 0.04	inactive: -0.141
SMC4 (UniProt Q9NTJ3)	inactive: 0.054	inactive: -0.04	inactive: -0.015	inactive: 0.042	inactive: -0.013	inactive: -0.07	inactive: 0.045	inactive: 0.075	inactive: -0.035	inactive: -0.002
SMIM8 (UniProt Q96KF7)	inactive: 0.162	inactive: 0.116	inactive: 0.167	inactive: 0.008	inactive: 0.027	inactive: -0.109	inactive: 0.004	inactive: -0.035	inactive: -0.054	inactive: 0.034
SOAT1 (UniProt P35610)	inactive: 0.066	inactive: 0.139	inactive: 0.094	inactive: -0.018	–	inactive: 0.079	–	inactive: -0.026	active: 0.448	inactive: 0.158
SMAP1 isoform 2 (UniProt Q8IYB5)	inactive: -0.009	inactive: 0.017	inactive: -0.025	inactive: 0.035	inactive: 0.033	inactive: 0.01	inactive: -0.003	inactive: 0.051	inactive: 0.008	inactive: 0.059
SMG8 isoform 2 (UniProt Q8ND04)	inactive: 0.056	inactive: -0.002	inactive: -0.232	inactive: 0.114	inactive: -0.155	inactive: 0.057	inactive: -0.05	inactive: 0.142	inactive: 0.126	inactive: -0.129
SLK isoform 2 (UniProt Q9H2G2)	inactive: 0.016	inactive: -0.068	inactive: 0.07	inactive: 0.014	–	inactive: 0.102	–	inactive: 0.052	inactive: -0.118	inactive: 0.021
SMPD2 (UniProt O60906)	inactive: 0.004	inactive: -0.063	inactive: -0.101	inactive: -0.088	inactive: 0.139	inactive: -0.04	inactive: -0.094	inactive: -0.03	inactive: 0.03	inactive: -0.115
SNCG (UniProt O76070)	inactive: 0	inactive: 0.041	inactive: 0.084	inactive: -0.069	inactive: 0.071	inactive: 0.004	inactive: -0.028	inactive: -0.031	inactive: -0.014	inactive: -0.037
SMYD2 (UniProt Q9NRG4)	inactive: 0.156	inactive: -0.139	inactive: 0.033	inactive: 0.322	inactive: -0.097	inactive: -0.085	inactive: 0.14	inactive: 0.095	inactive: 0.063	inactive: -0.082
SPA17 (UniProt Q15506)	inactive: 0.118	inactive: 0.031	inactive: -0.126	inactive: 0.033	inactive: 0.018	inactive: -0.136	inactive: 0.027	inactive: -0.053	inactive: -0.038	inactive: -0.084
SNX11 (UniProt Q9Y5W9)	inactive: -0.062	active: -0.76	inactive: -0.021	inactive: 0.012	active: -0.486	inactive: -0.378	–	inactive: 0.14	inactive: -0.017	active: -0.536

A second format for part of the listing above:
Target,log2 fold change [1],log2 fold change (crizotinib),log2 fold change [2],log2 fold change [3],log2 fold change (duvelisib),log2 fold change (gandotinib),log2 fold change (tozasertib),log2 fold change [4],log2 fold change (doramapimod),log2 fold change (ispinesib)
SMIM8 (UniProt Q96KF7),inactive: 0.162,inactive: 0.116,inactive: 0.167,inactive: 0.008,inactive: 0.027,inactive: -0.109,inactive: 0.004,inactive: -0.035,inactive: -0.054,inactive: 0.034
SOAT1 (UniProt P35610),inactive: 0.066,inactive: 0.139,inactive: 0.094,inactive: -0.018,–,inactive: 0.079,–,inactive: -0.026,active: 0.448,inactive: 0.158
SMAP1 isoform 2 (UniProt Q8IYB5),inactive: -0.009,inactive: 0.017,inactive: -0.025,inactive: 0.035,inactive: 0.033,inactive: 0.01,inactive: -0.003,inactive: 0.051,inactive: 0.008,inactive: 0.059
SMG8 isoform 2 (UniProt Q8ND04),inactive: 0.056,inactive: -0.002,inactive: -0.232,inactive: 0.114,inactive: -0.155,inactive: 0.057,inactive: -0.05,inactive: 0.142,inactive: 0.126,inactive: -0.129
SLK isoform 2 (UniProt Q9H2G2),inactive: 0.016,inactive: -0.068,inactive: 0.07,inactive: 0.014,–,inactive: 0.102,–,inactive: 0.052,inactive: -0.118,inactive: 0.021
SMPD2 (UniProt O60906),inactive: 0.004,inactive: -0.063,inactive: -0.101,inactive: -0.088,inactive: 0.139,inactive: -0.04,inactive: -0.094,inactive: -0.03,inactive: 0.03,inactive: -0.115
SNCG (UniProt O76070),inactive: 0,inactive: 0.041,inactive: 0.084,inactive: -0.069,inactive: 0.071,inactive: 0.004,inactive: -0.028,inactive: -0.031,inactive: -0.014,inactive: -0.037

The results go on.

Target	log2 fold change [1]	log2 fold change (crizotinib)	log2 fold change [2]	log2 fold change [3]	log2 fold change (duvelisib)	log2 fold change (gandotinib)	log2 fold change (tozasertib)	log2 fold change [4]	log2 fold change (doramapimod)	log2 fold change (ispinesib)
SORD (UniProt Q00796)	inactive: 0.035	inactive: 0.031	inactive: 0.047	inactive: -0.021	inactive: 0.017	inactive: 0.007	inactive: -0.022	inactive: -0.052	inactive: -0.05	inactive: 0.051
SNRNP27 (UniProt Q8WVK2)	inactive: 0.002	inactive: 0.038	inactive: -0.069	inactive: 0.072	–	inactive: 0.013	–	inactive: -0.065	inactive: -0.056	inactive: -0.119
SLIRP (UniProt Q9GZT3)	inactive: -0.046	inactive: -0.267	inactive: -0.202	inactive: 0.058	–	inactive: 0.162	–	inactive: 0.146	inactive: -0.045	inactive: -0.149
SMPD1 (UniProt P17405)	inactive: -0.156	inactive: -0.365	–	–	inactive: 0.077	inactive: 0.032	–	inactive: 0.054	inactive: 0.216	inactive: -0.055
SNX18 (UniProt Q96RF0)	inactive: 0.089	inactive: -0.142	inactive: -0.127	–	–	–	–	–	inactive: 0.032	–
SLC7A6OS (UniProt Q96CW6)	inactive: 0.047	inactive: -0.04	inactive: 0.004	inactive: -0.133	–	inactive: -0.081	–	inactive: -0.049	inactive: 0.214	inactive: 0.077
SP2 (UniProt Q02086)	inactive: -0.14	inactive: 0.083	–	–	–	–	–	inactive: 0.125	inactive: -0.06	–
SNX2 (UniProt O60749)	inactive: -0.034	inactive: -0.223	inactive: 0.006	inactive: -0.039	–	inactive: -0.216	–	inactive: 0.041	inactive: -0.014	inactive: -0.184
SNW1 (UniProt Q13573)	inactive: -0.035	inactive: 0.068	inactive: -0.062	inactive: 0.015	–	inactive: 0.045	–	inactive: -0.045	inactive: 0	inactive: -0.048
SNX1 (UniProt Q13596)	inactive: -0.134	inactive: -0.247	inactive: 0.028	inactive: -0.025	–	active: -0.319	–	inactive: 0.049	inactive: -0.009	inactive: -0.252
SLC9A1 (UniProt P19634)	inactive: -0.005	inactive: -0.102	inactive: -0.004	–	inactive: 0.038	inactive: 0.068	inactive: 0.021	inactive: -0.002	inactive: 0.068	–
SNAP23 isoform 2 (UniProt O00161)	inactive: 0.24	inactive: 0.153	inactive: -0.126	–	inactive: -0.067	–	inactive: -0.218	inactive: 0.26	inactive: -0.181	–
SMPD4 isoform 4 (UniProt Q9NXE4)	inactive: -0.026	inactive: -0.215	inactive: 0.005	inactive: 0.01	–	inactive: -0.133	–	inactive: 0.025	inactive: 0.002	inactive: -0.255
SMC5 (UniProt Q8IY18)	inactive: 0.03	inactive: 0.161	inactive: 0.081	inactive: 0.036	–	inactive: 0.028	–	inactive: 0.017	inactive: 0.015	inactive: 0.092
SMAP2 (UniProt Q8WU79)	inactive: 0.04	inactive: 0.097	inactive: 0.015	inactive: 0.04	–	inactive: -0.011	–	inactive: 0.096	inactive: -0.047	inactive: -0.006
SNX15 (UniProt Q9NRS6)	inactive: 0.064	inactive: 0.002	–	inactive: 0.153	–	inactive: -0.061	–	inactive: -0.043	inactive: 0.136	inactive: -0.132
SMARCE1 (UniProt Q969G3)	inactive: -0.088	inactive: 0.011	inactive: 0.048	inactive: 0.093	–	inactive: -0.087	–	inactive: 0.135	inactive: 0.052	inactive: 0.048
